No constants are given. Whether binding was seen depends on the method and setting. Some entries that bind do so weakly or less than the wild type. Sequences can lack the tags named with a protein.
T1: MglA (Myxococcus xanthus small GTPase), C-terminal 6xHis (M. xanthus) (UniProt Q1DB04)
T1 sequence: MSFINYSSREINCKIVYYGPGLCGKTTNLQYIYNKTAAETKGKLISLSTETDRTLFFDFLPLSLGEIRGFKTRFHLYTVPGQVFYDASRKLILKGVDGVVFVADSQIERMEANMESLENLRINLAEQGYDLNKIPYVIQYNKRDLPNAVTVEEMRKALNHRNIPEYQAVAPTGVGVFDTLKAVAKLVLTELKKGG

T2: MglB (MglB-2 construct, 6xHis tag cleaved by TEV protease) (M. xanthus), Q1DB03
T2 chain: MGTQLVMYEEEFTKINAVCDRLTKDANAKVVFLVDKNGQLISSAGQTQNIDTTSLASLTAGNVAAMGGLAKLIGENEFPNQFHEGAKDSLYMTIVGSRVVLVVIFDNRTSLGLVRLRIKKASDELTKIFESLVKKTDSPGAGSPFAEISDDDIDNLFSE


What was measured:
[1] = molecular target: T1, MglA (Myxococcus xanthus small GTPase), C-terminal 6xHis (M. xanthus); assay: crystal structure; MglA-GTPγS/MglB complex; equimolar MglA and MglB with 20x GTPγS, purified by SEC; crystals in 0.2 M HEPES pH 7, 16% PEG 4000; 2.8 Å; both purified
[2] = molecular target: T2, MglB (MglB-2 construct, 6xHis tag …); assay: SEC-SAXS; MglB 15 mg/mL (600 µg in 40 µL) injected; 20 mM Tris pH 8.0, 150 mM NaCl, 1 mM DTT; both purified; details: remark: other sources report otherwise

| binding [1] | binding [2] | Binder |
| --- | --- | --- |
| binds | – | MglB (MglB-2 construct, 6xHis tag cleaved by TEV protease) (protein, UniProt Q1DB03 1-159) MGTQLVMYEEEFTKINAVCDRLTKDANAKVVFLVDKNGQLISSAGQTQNIDTTSLASLTAGNVAAMGGLAKLIGENEFPNQFHEGAKDSLYMTIVGSRVVLVVIFDNRTSLGLVRLRIKKASDELTKIFESLVKKTDSPGAGSPFAEISDDDIDNLFSE |
| – | binds | MglB (MglB-2 construct, 6xHis tag cleaved by TEV protease), Q1DB03 1-159 (natural protein) MGTQLVMYEEEFTKINAVCDRLTKDANAKVVFLVDKNGQLISSAGQTQNIDTTSLASLTAGNVAAMGGLAKLIGENEFPNQFHEGAKDSLYMTIVGSRVVLVVIFDNRTSLGLVRLRIKKASDELTKIFESLVKKTDSPGAGSPFAEISDDDIDNLFSE |
